# Measured values taken from the supplement of paper PMC12819154, “High-throughput peptide-centric local stability assay extends protein–ligand identification to membrane proteins, tissues and bacteria” (Nature Structural & Molecular Biology, 2025).
# Amino acid sequences for entries named in this document (tags omitted). A change or cut given only in a name is not applied to a line headed by its entry.
# UniProt Q8BGR2: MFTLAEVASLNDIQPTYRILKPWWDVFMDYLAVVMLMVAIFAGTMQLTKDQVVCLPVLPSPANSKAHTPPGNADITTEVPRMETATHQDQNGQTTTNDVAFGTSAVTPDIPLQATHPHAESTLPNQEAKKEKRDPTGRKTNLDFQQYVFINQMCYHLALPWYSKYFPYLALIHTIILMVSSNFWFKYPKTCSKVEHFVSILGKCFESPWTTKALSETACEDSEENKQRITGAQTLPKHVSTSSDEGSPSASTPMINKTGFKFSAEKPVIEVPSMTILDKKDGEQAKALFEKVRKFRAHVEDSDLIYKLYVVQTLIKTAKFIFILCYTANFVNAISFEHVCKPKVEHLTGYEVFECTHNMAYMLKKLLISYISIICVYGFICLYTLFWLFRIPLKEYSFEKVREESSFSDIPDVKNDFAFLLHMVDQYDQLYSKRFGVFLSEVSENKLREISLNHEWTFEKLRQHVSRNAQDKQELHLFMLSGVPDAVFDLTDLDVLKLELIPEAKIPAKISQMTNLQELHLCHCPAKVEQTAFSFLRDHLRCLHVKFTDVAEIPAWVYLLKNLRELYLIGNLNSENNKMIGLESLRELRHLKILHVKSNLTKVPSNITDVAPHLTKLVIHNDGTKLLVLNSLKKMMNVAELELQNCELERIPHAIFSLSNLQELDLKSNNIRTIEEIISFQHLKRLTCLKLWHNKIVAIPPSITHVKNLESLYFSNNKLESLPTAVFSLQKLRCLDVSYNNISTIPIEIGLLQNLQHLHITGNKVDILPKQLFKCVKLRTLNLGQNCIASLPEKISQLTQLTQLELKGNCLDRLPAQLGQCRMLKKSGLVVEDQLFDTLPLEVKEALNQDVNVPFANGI
# UniProt Q80W00: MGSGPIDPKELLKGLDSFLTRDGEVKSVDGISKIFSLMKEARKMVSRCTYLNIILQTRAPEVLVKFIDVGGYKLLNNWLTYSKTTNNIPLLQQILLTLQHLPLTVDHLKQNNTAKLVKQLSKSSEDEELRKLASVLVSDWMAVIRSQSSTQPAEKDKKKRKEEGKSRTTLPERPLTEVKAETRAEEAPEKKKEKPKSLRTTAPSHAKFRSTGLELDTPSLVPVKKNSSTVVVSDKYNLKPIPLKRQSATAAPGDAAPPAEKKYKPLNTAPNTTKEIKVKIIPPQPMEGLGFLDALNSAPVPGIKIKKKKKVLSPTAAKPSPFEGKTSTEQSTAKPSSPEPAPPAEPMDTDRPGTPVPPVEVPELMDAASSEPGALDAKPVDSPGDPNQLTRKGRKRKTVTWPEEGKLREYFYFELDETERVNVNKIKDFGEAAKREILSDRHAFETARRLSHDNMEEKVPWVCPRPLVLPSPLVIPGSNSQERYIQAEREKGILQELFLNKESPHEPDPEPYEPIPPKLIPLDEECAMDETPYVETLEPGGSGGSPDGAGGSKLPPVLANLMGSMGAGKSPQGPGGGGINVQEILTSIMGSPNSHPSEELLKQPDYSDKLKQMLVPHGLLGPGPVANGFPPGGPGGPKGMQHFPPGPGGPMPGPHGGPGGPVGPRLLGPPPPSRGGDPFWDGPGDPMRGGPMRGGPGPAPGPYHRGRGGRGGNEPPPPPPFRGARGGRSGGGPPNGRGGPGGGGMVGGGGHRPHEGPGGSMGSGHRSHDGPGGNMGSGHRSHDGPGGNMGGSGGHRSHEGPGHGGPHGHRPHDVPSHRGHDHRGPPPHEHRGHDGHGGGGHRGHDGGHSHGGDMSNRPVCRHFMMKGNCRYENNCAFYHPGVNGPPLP
# UniProt Q80X71, whole entry: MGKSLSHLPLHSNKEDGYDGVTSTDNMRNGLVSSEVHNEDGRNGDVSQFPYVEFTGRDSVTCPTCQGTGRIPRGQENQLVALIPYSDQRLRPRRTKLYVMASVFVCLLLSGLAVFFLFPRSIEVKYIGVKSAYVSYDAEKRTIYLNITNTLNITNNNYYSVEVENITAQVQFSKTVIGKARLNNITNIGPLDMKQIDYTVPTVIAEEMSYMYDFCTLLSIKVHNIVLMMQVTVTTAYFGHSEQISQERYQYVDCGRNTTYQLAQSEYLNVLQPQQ
# UniProt Q80ZU0: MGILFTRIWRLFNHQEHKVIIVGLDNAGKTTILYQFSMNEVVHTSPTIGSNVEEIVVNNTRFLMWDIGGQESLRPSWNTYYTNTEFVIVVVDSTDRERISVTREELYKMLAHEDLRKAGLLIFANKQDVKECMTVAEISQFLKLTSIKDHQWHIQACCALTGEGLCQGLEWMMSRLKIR
# UniProt Q8BGG9: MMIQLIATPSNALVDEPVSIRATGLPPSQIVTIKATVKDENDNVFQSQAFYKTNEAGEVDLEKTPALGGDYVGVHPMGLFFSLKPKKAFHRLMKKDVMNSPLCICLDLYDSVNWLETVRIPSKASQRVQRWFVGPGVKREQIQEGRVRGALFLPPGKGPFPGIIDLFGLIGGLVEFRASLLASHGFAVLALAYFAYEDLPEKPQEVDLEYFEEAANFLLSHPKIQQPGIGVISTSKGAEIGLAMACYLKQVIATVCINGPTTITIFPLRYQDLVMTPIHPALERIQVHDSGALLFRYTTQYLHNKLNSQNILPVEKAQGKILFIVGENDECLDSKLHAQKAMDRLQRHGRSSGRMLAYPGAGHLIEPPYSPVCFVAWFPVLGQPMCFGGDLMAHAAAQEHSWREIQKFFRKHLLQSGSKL
# UniProt Q80VW7: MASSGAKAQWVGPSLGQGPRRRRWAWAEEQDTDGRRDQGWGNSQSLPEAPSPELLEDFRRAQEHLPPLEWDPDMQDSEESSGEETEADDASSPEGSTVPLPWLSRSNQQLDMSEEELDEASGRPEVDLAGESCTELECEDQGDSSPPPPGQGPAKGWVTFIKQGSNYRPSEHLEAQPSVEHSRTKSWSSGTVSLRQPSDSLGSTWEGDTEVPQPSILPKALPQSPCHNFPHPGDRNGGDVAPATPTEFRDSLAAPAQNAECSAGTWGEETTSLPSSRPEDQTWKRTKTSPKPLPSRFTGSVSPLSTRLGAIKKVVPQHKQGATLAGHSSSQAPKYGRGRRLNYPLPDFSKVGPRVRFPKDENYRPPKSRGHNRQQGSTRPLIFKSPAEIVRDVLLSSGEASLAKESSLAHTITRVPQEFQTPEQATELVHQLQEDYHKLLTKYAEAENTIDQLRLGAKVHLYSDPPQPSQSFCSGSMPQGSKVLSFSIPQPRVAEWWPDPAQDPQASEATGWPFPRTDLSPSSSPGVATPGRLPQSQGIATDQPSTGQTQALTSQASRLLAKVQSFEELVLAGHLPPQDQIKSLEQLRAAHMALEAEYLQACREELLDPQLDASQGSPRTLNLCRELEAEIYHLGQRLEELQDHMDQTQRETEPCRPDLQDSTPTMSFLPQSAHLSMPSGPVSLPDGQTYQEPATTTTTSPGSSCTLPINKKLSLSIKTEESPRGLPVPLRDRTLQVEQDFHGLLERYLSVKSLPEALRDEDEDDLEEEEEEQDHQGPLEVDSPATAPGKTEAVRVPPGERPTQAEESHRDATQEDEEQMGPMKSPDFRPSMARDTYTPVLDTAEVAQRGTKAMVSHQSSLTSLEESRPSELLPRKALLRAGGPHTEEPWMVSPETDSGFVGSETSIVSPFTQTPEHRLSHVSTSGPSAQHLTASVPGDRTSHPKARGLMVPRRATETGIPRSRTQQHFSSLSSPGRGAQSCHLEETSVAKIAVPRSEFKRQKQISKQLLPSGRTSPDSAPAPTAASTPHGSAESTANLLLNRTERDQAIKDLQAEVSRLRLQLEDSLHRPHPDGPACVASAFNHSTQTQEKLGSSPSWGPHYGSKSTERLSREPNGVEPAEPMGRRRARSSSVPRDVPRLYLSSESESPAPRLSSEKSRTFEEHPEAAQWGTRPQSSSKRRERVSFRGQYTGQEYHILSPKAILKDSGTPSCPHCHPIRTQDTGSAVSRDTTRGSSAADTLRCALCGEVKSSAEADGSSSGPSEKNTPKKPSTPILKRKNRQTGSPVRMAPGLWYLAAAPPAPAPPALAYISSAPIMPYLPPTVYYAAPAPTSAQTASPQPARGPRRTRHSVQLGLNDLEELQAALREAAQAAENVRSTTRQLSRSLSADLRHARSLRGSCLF
# UniProt Q80XC6: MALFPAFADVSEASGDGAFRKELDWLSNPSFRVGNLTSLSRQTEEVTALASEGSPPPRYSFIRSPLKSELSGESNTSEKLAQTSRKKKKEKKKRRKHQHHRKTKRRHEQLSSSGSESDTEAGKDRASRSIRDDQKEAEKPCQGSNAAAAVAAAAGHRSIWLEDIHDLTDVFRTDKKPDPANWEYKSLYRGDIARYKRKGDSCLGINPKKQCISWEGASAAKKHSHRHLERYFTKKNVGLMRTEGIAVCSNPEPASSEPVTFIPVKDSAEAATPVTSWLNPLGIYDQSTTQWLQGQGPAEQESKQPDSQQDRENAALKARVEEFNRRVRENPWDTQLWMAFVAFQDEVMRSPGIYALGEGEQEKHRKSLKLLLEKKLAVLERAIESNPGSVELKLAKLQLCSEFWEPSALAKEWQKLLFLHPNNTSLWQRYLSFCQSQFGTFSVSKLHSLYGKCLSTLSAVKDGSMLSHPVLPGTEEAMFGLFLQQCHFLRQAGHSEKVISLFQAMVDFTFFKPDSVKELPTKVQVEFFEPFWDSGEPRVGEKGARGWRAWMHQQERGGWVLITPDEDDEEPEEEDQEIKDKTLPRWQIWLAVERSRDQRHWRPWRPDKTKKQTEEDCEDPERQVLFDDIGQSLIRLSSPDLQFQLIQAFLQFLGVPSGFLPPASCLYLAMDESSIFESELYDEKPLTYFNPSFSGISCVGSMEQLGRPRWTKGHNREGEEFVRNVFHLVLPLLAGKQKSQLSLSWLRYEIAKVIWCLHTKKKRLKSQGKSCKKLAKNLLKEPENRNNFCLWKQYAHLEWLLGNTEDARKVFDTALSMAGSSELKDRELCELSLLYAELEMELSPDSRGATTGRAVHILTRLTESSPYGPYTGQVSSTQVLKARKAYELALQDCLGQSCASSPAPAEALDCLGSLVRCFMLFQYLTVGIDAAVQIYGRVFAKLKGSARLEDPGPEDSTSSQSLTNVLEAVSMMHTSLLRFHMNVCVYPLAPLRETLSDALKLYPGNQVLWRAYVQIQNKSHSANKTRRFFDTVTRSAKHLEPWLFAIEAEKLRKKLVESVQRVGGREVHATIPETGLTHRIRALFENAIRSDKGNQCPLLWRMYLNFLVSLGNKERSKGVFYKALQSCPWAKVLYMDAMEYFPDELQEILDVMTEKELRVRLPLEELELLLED
# UniProt Q811I0: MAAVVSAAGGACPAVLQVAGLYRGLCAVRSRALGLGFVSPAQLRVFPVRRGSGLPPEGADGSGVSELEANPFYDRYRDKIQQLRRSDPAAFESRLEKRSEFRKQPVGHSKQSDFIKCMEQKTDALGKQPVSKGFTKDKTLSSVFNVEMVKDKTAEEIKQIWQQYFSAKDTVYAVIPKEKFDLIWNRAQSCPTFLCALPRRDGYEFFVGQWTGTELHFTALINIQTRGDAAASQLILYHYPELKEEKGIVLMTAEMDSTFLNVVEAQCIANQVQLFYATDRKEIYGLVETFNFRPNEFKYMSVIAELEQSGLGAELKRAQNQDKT
# UniProt Q80VP1: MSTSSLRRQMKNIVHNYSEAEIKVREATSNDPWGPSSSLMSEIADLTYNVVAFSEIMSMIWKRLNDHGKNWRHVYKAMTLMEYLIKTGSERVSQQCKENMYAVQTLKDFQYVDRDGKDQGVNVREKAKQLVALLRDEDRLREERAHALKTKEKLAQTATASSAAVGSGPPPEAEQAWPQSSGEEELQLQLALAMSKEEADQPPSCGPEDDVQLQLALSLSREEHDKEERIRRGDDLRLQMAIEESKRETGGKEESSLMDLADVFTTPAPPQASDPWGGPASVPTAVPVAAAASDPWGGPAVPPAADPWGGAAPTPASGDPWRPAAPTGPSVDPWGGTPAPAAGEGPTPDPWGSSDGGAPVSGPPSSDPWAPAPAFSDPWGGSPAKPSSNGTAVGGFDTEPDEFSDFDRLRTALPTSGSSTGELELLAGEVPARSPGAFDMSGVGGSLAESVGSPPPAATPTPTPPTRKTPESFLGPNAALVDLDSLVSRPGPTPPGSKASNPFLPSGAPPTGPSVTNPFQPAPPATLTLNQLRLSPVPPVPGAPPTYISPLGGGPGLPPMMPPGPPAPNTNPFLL
# UniProt Q8BG48: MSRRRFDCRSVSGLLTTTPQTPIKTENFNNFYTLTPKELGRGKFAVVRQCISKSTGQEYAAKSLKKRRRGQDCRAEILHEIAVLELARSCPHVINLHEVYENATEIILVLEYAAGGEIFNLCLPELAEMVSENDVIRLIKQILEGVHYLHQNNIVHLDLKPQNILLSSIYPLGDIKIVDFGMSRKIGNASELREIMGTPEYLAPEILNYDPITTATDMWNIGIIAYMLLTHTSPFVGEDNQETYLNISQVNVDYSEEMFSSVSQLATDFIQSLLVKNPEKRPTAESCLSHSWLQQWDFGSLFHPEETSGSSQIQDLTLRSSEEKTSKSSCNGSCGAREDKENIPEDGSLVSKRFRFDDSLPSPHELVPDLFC
# Some of the results follow. Most entries show no effect beyond the scatter of the controls.
# Compound: CN[C@@H]1C[C@H]2O[C@@](C)([C@@H]1OC)n1c3ccccc3c3c4c(c5c6ccccc6n2c5c31)C(=O)NC4 [staurosporine]
# Test: log2 fold change of tryptic peptide abundance, ligand vs vehicle (limited proteolysis) (log2 ratio); higher = more trypsin-susceptible (destabilized)
# Details: ligand concentration: 20 uM; sample: mouse liver crude lysate; replicate design: treated separately
row,Target,log2 fold change
1,"UniProt Q80WQ4 (peptide sequence: TPGTSDNFSGHK, peptide start residue: 323)",-0.15
2,"UniProt Q8BGR2 (peptide sequence: HVSTSSDEGSPSASTPMINK, peptide start residue: 238)",-0.444
3,"UniProt Q80YV2 (peptide sequence: WAGKPPELSPLICAK, peptide start residue: 90)",0.143
4,"UniProt Q80W00 (peptide sequence: SHEGPGHGGPHGHRPHDVPSHR, peptide start residue: 797)",0.589
5,"UniProt Q80X71 (peptide sequence: SAYVSYDAEKR, peptide start residue: 131)",-0.0678
6,"UniProt Q8BGC4 (peptide sequence: GFFLNHYFSK, peptide start residue: 302)",0.176
7,"UniProt Q80ZU0 (peptide sequence: ISVTREELYK, peptide start residue: 99)",-0.215
8,"UniProt Q8BGG9 (peptide sequence: YTTQYLHNK, peptide start residue: 297)",0.143
9,"UniProt Q812E0 (peptide sequence: FVQLQHGDIDKR, peptide start residue: 435)",-0.48
10,"UniProt Q8BH55 (peptide sequence: NIVLMGPPGSGK, peptide start residue: 57)",-0.13
11,"UniProt Q810V0 (peptide sequence: SSQAFFSK, peptide start residue: 642)",-0.188
12,"UniProt Q8BGF7 (peptide sequence: RAPPVDAEILR, peptide start residue: 422)",0.665
13,"UniProt Q8BGV9 (peptide sequence: FLTAWNNVK, peptide start residue: 69)",0.144
14,"UniProt Q80VW7 (peptide sequence: DLQAEVSR, peptide start residue: 1052)",0.0756
15,"UniProt Q8BH64 (peptide sequence: VVGTPEVLR, peptide start residue: 243)",0.306
16,"UniProt Q80XN0 (peptide sequence: KMWDDLPEVVRK, peptide start residue: 259)",0.2

row,Target,log2 fold change
1,"UniProt Q8BHL3 (peptide sequence: AVGGAPSPPPPVR, peptide start residue: 658)",0.285
2,"UniProt Q8BGC1 (peptide sequence: ILQELYQFK, peptide start residue: 273)",-0.107
3,"UniProt Q8BHC0 (peptide sequence: TIKNPEEAK, peptide start residue: 296)",-0.164
4,"UniProt Q80XC6 (peptide sequence: SQLSLSWLR, peptide start residue: 739)",0.37
5,"UniProt Q8BH04 (peptide sequence: IFHVNWFR, peptide start residue: 511)",0.0974
6,"UniProt Q8BHN7 (peptide sequence: GQPYLWAR, peptide start residue: 70)",-0.27
7,"UniProt Q8BH43 (peptide sequence: GSVLAGPKR, peptide start residue: 283)",-0.19
8,"UniProt Q80Y19 (peptide sequence: LALLQQLR, peptide start residue: 9)",0.268
9,"UniProt Q811I0 (peptide sequence: QSDFIKCMEQK, peptide start residue: 111)",0.189
10,"UniProt Q8BG26 (peptide sequence: VIATVDEDWLR, peptide start residue: 864)",0.427
11,"UniProt Q80XJ2 (peptide sequence: LLALQLQK, peptide start residue: 447)",-0.239
12,"UniProt Q80VP1 (peptide sequence: NIVHNYSEAEIK, peptide start residue: 12)",-0.22
13,"UniProt Q8BHL8 (peptide sequence: SGIITPIHEQWEK, peptide start residue: 136)",-0.0627
14,"UniProt Q8BG48 (peptide sequence: EDKENIPEDGSLVSKR, peptide start residue: 338)",-0.432
15,"UniProt Q80Y56 (peptide sequence: LLGLMSLPTKEQFEELK, peptide start residue: 369)",0.207

# Reformatted: entries from further up
row	Target	log2 fold change
15	UniProt Q8BH64 (peptide sequence: VVGTPEVLR, peptide start residue: 243)	0.306
2	UniProt Q8BGC1 (peptide sequence: ILQELYQFK, peptide start residue: 273)	-0.107
